Reference: ChEMBL document CHEMBL4316593 (Eur J Med Chem, 2019)
The source gives many values for each of these; only a part stands here.

How the values were obtained:
Assay type in all cases: cell-based
Conditions in all cases: U-87MG ATCC
[1] = Inhibition of RTK/PI3K/AKT/mTOR signaling in human U87 cells assessed as down regulation of TCF19 gene expression at cytotoxic IC50 measured after 48 hrs relative to control
[2] = Inhibition of RTK/PI3K/AKT/mTOR signaling in human U87 cells assessed as down regulation of PSMD14 gene expression at cytotoxic IC50 measured after 48 hrs relative to control
[3] = Inhibition of RTK/PI3K/AKT/mTOR signaling in human U87 cells assessed as up regulation of MET proto-oncogene, receptor tyrosine kinase gene expression at cytotoxic IC50 measured after 48 hrs relative to control
[4] = Inhibition of RTK/PI3K/AKT/mTOR signaling in human U87 cells assessed as down regulation of CDCA7 gene expression at cytotoxic IC50 measured after 48 hrs relative to control
[5] = Inhibition of RTK/PI3K/AKT/mTOR signaling in human U87 cells assessed as down regulation of BAP1 gene expression at cytotoxic IC50 measured after 48 hrs relative to control
[6] = Inhibition of RTK/PI3K/AKT/mTOR signaling in human U87 cells assessed as down regulation of USP11 gene expression at cytotoxic IC50 measured after 48 hrs relative to control
[7] = Inhibition of RTK/PI3K/AKT/mTOR signaling in human U87 cells assessed as up regulation of TMED10 gene expression at cytotoxic IC50 measured after 48 hrs relative to control
[8] = Inhibition of RTK/PI3K/AKT/mTOR signaling in human U87 cells assessed as down regulation of PNPLA8 gene expression at cytotoxic IC50 measured after 48 hrs relative to control
[9] = Inhibition of RTK/PI3K/AKT/mTOR signaling in human U87 cells assessed as down regulation of CMC2 gene expression at cytotoxic IC50 measured after 48 hrs relative to control
[10] = Inhibition of RTK/PI3K/AKT/mTOR signaling in human U87 cells assessed as up regulation of SRC kinase signaling inhibitor 1 gene expression at cytotoxic IC50 measured after 48 hrs relative to control
[11] = Inhibition of RTK/PI3K/AKT/mTOR signaling in human U87 cells assessed as down regulation of CCDC6 gene expression at cytotoxic IC50 measured after 48 hrs relative to control
[12] = Inhibition of RTK/PI3K/AKT/mTOR signaling in human U87 cells assessed as down regulation of GNA13 gene expression at cytotoxic IC50 measured after 48 hrs relative to control
[13] = Inhibition of RTK/PI3K/AKT/mTOR signaling in human U87 cells assessed as up regulation of CDC42EP1 gene expression at cytotoxic IC50 measured after 48 hrs relative to control
[14] = Inhibition of RTK/PI3K/AKT/mTOR signaling in human U87 cells assessed as down regulation of CREBBP gene expression at cytotoxic IC50 measured after 48 hrs relative to control
[15] = Inhibition of RTK/PI3K/AKT/mTOR signaling in human U87 cells assessed as down regulation of SPECC1 gene expression at cytotoxic IC50 measured after 48 hrs relative to control
[16] = Inhibition of RTK/PI3K/AKT/mTOR signaling in human U87 cells assessed as down regulation of AGO2 gene expression at cytotoxic IC50 measured after 48 hrs relative to control
[17] = Inhibition of RTK/PI3K/AKT/mTOR signaling in human U87 cells assessed as up regulation of ATP binding cassette subfamily A member 1 gene expression at cytotoxic IC50 measured after 48 hrs relative to control
[18] = Inhibition of RTK/PI3K/AKT/mTOR signaling in human U87 cells assessed as up regulation of zinc and ring finger 1 gene expression at cytotoxic IC50 measured after 48 hrs relative to control
[19] = Inhibition of RTK/PI3K/AKT/mTOR signaling in human U87 cells assessed as down regulation of CWC15 gene expression at cytotoxic IC50 measured after 48 hrs relative to control
[20] = Inhibition of RTK/PI3K/AKT/mTOR signaling in human U87 cells assessed as down regulation of SCPEP1 gene expression at cytotoxic IC50 measured after 48 hrs relative to control
[21] = Inhibition of RTK/PI3K/AKT/mTOR signaling in human U87 cells assessed as down regulation of FN3KRP gene expression at cytotoxic IC50 measured after 48 hrs relative to control
[22] = Inhibition of RTK/PI3K/AKT/mTOR signaling in human U87 cells assessed as down regulation of MAP7D2 gene expression at cytotoxic IC50 measured after 48 hrs relative to control
[23] = Inhibition of RTK/PI3K/AKT/mTOR signaling in human U87 cells assessed as down regulation of TNKS2 gene expression at cytotoxic IC50 measured after 48 hrs relative to control
[24] = Inhibition of RTK/PI3K/AKT/mTOR signaling in human U87 cells assessed as down regulation of MYH9 gene expression at cytotoxic IC50 measured after 48 hrs relative to control
[25] = Inhibition of RTK/PI3K/AKT/mTOR signaling in human U87 cells assessed as up regulation of MN1 gene expression at cytotoxic IC50 measured after 48 hrs relative to control
[26] = Inhibition of RTK/PI3K/AKT/mTOR signaling in human U87 cells assessed as up regulation of TRAF3 gene expression at cytotoxic IC50 measured after 48 hrs relative to control
[27] = Inhibition of RTK/PI3K/AKT/mTOR signaling in human U87 cells assessed as up regulation of GSN gene expression at cytotoxic IC50 measured after 48 hrs relative to control
[28] = Inhibition of RTK/PI3K/AKT/mTOR signaling in human U87 cells assessed as up regulation of GID complex subunit 4 homolog gene expression at cytotoxic IC50 measured after 48 hrs relative to control
[29] = Inhibition of RTK/PI3K/AKT/mTOR signaling in human U87 cells assessed as up regulation of PPFIA4 gene expression at cytotoxic IC50 measured after 48 hrs relative to control
[30] = Inhibition of RTK/PI3K/AKT/mTOR signaling in human U87 cells assessed as down regulation of NPLOC4 gene expression at cytotoxic IC50 measured after 48 hrs relative to control
[31] = Inhibition of RTK/PI3K/AKT/mTOR signaling in human U87 cells assessed as up regulation of endoplasmic reticulum oxidoreductase 1 alpha gene expression at cytotoxic IC50 measured after 48 hrs relative to control
[32] = Inhibition of RTK/PI3K/AKT/mTOR signaling in human U87 cells assessed as up regulation of TMEM145 gene expression at cytotoxic IC50 measured after 48 hrs relative to control

Question: With `CC(=O)C(=NNc1ccccc1C#N)C(C)=O` as the molecule, how does the log2FC [1] read?
Answer: -1.39

Question: What about the log2FC [2] of the same molecule?
Answer: -0.709

Question: What about the log2FC [3] of the same molecule?
Answer: 0.717

Question: And the log2FC [4]?
Answer: -1.44

Question: And the log2FC [5]?
Answer: -0.61

Question: What about the log2FC [6] of the same molecule?
Answer: -0.646

Question: And the log2FC [7]?
Answer: 0.582

Question: And the log2FC [8]?
Answer: -0.884

Question: What about the log2FC [9] of the same molecule?
Answer: -0.813

Question: What about the log2FC [10] of the same molecule?
Answer: 1.3

Question: What about the log2FC [11] of the same molecule?
Answer: -0.432

Question: And the log2FC [12]?
Answer: -0.483

Question: And the log2FC [13]?
Answer: 0.5

Question: What about the log2FC [14] of the same molecule?
Answer: -0.864

Question: What about the log2FC [15] of the same molecule?
Answer: -0.964

Question: And the log2FC [16]?
Answer: -0.712

Question: What about the log2FC [17] of the same molecule?
Answer: 1.4

Question: And the log2FC [18]?
Answer: 0.857

Question: What about the log2FC [19] of the same molecule?
Answer: -0.565

Question: What about the log2FC [20] of the same molecule?
Answer: -0.594

Question: And the log2FC [21]?
Answer: -0.935

Question: And the log2FC [22]?
Answer: -3.02

Question: What about the log2FC [23] of the same molecule?
Answer: -0.672

Question: What about the log2FC [24] of the same molecule?
Answer: -0.872

Question: And the log2FC [25]?
Answer: 2.09

Question: What about the log2FC [26] of the same molecule?
Answer: 0.64

Question: And the log2FC [27]?
Answer: 0.457

Question: What about the log2FC [28] of the same molecule?
Answer: 0.859

Question: What about the log2FC [29] of the same molecule?
Answer: 2.05

Question: And the log2FC [30]?
Answer: -0.516

Question: What about the log2FC [31] of the same molecule?
Answer: 0.848

Question: What about the log2FC [32] of the same molecule?
Answer: 1.97
